# According to article PMC12670160, “A drug-repurposing screen of FDA- and EMA-approved drugs identifies two NF-κB inhibitors active against eumycetoma” (Journal of Antimicrobial Chemotherapy, 2025):
# Where a name gives a salt, the structure may show the parent alone. Among all 5,300 compounds or so, about 130 (2.5%) showed an effect of 50% or more. The list shows a part of the results.
# System: M. mycetomatis strain mm55
# Conditions: primary screen, metabolic activity vs growth control; 96 h, 2 µM; inhibitor
row,Structure (SMILES),% viability [%]
1,"CC1(C)CCC(C)(C)c2cc(C(=O)Nc3ccc(C(=O)O)cc3)ccc21 [ONC0000710, am580]",97.2
2,O=C1Cc2c([nH]c3ccc(Br)cc23)-c2ncccc2N1 [ONC0004314],117.8
3,"COc1ccc2cc(OCC3(C(=O)O)CN(C(=O)c4ccc(F)cc4)C3)ccc2c1 [ONC0002721, pf04418948]",59.88
4,"CCCn1c(=O)c2[nH]cnc2n(-c2ccc(Cl)cc2)c1=O [ONC0002882, 34chlorophenyl1propyl37dihydro1hpurine26dione]",107.6
5,"Oc1cc(O)c(Cl)cn1 [ONC0004771, gimeracil]",94.06
6,"COCCn1c2c([n+](Cc3cnccn3)c1C)C(=O)c1ccccc1C2=O [ONC0001046, ym155]",83.36
7,"NCCCC[C@H](NC(=O)[C@@H]1CCCN1C(=O)[C@@H]1CSSC[C@H](N)C(=O)N[C@@H](Cc2ccc(O)cc2)C(=O)N[C@@H](Cc2ccccc2)C(=O)N[C@@H](CCC(N)=O)C(=O)N[C@@H](CC(N)=O)C(=O)N1)C(=O)NCC(N)=O [ONC0002936, lypressin]",74.45
8,"COCCOc1ccc2c(c1)ncn2-c1ccc2cccc(N3CCC(N)CC3)c2n1 [ONC0004866, cp 673451]",114.1
9,"CCOc1ccccc1-n1c(C(C)N2CCN(C(=O)COc3ccc(Cl)cc3)CC2)nc2ccccc2c1=O (stereo not shown) [ONC0004339, erastin]",68.66
10,"CC(=O)N1CCN(C)CC1 [ONC0000037, 1acetyl4methylpiperazine]",74.17
11,"COc1ccc(C2CC(c3ccccc3)=NN2c2ccc(S(N)(=O)=O)cc2)cc1 (stereo not shown) [ONC0002526, ml141]",69.66
12,"CN1CCN(c2c(F)cc3c(=O)c(C(=O)O)cn4c3c2SCC4)CC1 [ONC0004109, rufloxacin hydrochloride]",115.8
13,"Cc1cc(-c2ccc(CC(=O)Nc3ccc(-c4cccnc4)cc3)cc2)ccn1 [ONC0005135, wntc59 c59]",117.7
14,"C[C@]12C=CC(=O)C=C1CCC1C2[C@@H](O)C[C@@]2(C)C1CC[C@]2(O)C(=O)CO (stereo partly shown) [ONC0005351, prednisolone]",112.6
15,"OC[C@H]1O[C@@H](c2ccc(Cl)c(Cc3ccc(O[C@H]4CCOC4)cc3)c2)[C@H](O)[C@@H](O)[C@@H]1O [ONC0004415, empagliflozin bi10773]",111.5
16,"COC(=O)C1=C(C)NC(C)=C(C(=O)OCCN(C)Cc2ccccc2)C1c1cccc([N+](=O)[O-])c1 (stereo not shown) [ONC0000686, nicardipine hydrochloride]",131.5
17,"CN(C)c1cccc(-c2c3c(=O)n(-c4ccccc4Cl)[nH]c3cc(=O)n2C)c1 [ONC0005140, gkt137831]",98.71
18,"CCCCOc1nc(N)c2c(n1)N(Cc1cccc(CN3CCCC3)c1)CC(=O)N2 [ONC0002288, vesatolimod]",102
19,"Cc1nc(C#Cc2ccnc(Cl)c2)c(C)n1-c1ccc(OC(F)(F)F)cc1 [ONC0005233, ctep ro4956371]",121.6
20,"Cc1ccccc1C(OCCN(C)C)c1ccccc1 (stereo not shown) [ONC0000493, orphenadrine citrate]",77.66

row,Structure (SMILES),% viability [%]
1,"Cc1c(I)c(=O)n(-c2ccccc2)n1C [ONC0003597, iodoantipyrine]",87.63
2,"CC[C@@]1(O)C(=O)OCc2c1cc1n(c2=O)Cc2c-1nc1cc(F)c(C)c3c1c2[C@@H](N)CC3.CS(=O)(=O)O [ONC0003668, exatecan mesylate]",59.4
3,"Cc1ccc(/C=C2\CNC/C(=C\c3ccc(C)cc3)C2=O)cc1 [ONC0001273, nsc632839]",77.71
4,"Cc1nn(C)c2c1C(c1ccc(C(F)(F)F)cc1)C(C#N)=C(N)O2 (stereo not shown) [ONC0001080, bqu57]",74.27
5,"CNCc1cc(-c2ccccc2F)n(S(=O)(=O)c2cccnc2)c1 [ONC0005239, vonoprazan fumarate tak438]",126.5
6,"c1ccc(CCCN2CCN(CCOC(c3ccccc3)c3ccccc3)CC2)cc1 [ONC0000798, gbr12935]",68.39
7,"COc1c2ccoc2cc2oc(=O)ccc12 [ONC0003294, bergapten]",47.96
8,"Cc1ccc(NC2=NCCN2)c(Cl)c1 [ONC0003745, tolonidine]",96.65
9,"NCCCC(N)(C(=O)O)C(F)F (stereo not shown) [ONC0005502, eflornithinehcl]",114.1
10,"CCCCCCCCCCCC1=C(O)C(=O)C=C(O)C1=O [ONC0001079, embelin]",49.47
11,"O=C(N[C@@H]1CC[C@@H](c2cccc(F)c2F)CN(CC(F)(F)F)C1=O)N1CCC(n2c(=O)[nH]c3ncccc32)CC1 [ONC0001566, telcagepant]",94.08
12,"CCOCc1nc2c(N)nc3ccccc3c2n1CC(C)(C)O [ONC0001869, resiquimod]",79.98
13,"NC(=O)NC1NC(=O)NC1=O (stereo not shown) [ONC0003841, allantoin]",66.81
14,"Nc1nc2c(ccc3ccccc32)s1 [ONC0000043, ska31]",123.7
15,"O=C(O)CNC(=O)c1nc(Cl)c2ccccc2c1O [ONC0001289, fg2216]",75.15
16,"CCCCCCCCCCCCCCCC(=O)C(F)(F)F [ONC0001696, pacocf3]",62.66
17,"c1ccc(Oc2nc(NC3CCCCC3)c3[nH]cnc3n2)cc1 [ONC0001307, mrs3777 oxalate]",79.99
18,"O=C1CCc2ccc(OCCCCN3CCN(c4cccc(Cl)c4Cl)CC3)cc2N1 [ONC0004034, aripiprazole]",69.53
19,"CN(C)CCOC(c1ccc(Cl)cc1)c1ccccn1 (stereo not shown) [ONC0000751, carbinoxamine maleate]",75.65
20,"CCCCCOC(=O)Nc1nc(=O)n([C@@H]2O[C@H](C)[C@@H](O)[C@H]2O)cc1F [ONC0004069, capecitabine]",87.95

# Given bar-delimited: entries from further up
row | Structure (SMILES) | % viability [%]
4 | CCCn1c(=O)c2[nH]cnc2n(-c2ccc(Cl)cc2)c1=O [ONC0002882, 34chlorophenyl1propyl37dihydro1hpurine26dione] | 107.6
1 | Cc1c(I)c(=O)n(-c2ccccc2)n1C [ONC0003597, iodoantipyrine] | 87.63
4 | Cc1nn(C)c2c1C(c1ccc(C(F)(F)F)cc1)C(C#N)=C(N)O2 (stereo not shown) [ONC0001080, bqu57] | 74.27
